These are yes or no findings as the source states them, for the method shown. In cells and extracts the contact can be indirect. Some results given as binding are weak or reduced against the parent protein; the word gives no strength.
Target: T1, programmed cell death 5 (human (endogenous in A498)) (UniProt O14737)
T1 sequence: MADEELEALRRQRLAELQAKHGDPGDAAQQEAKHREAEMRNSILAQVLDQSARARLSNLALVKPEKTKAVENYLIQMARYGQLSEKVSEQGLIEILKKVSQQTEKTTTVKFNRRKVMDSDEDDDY
Assay: co-IP; endogenous proteins; A498 cells lysed in NP-40 buffer (25 mM Tris-HCl pH 7.4, 150 mM NaCl, 1 mM EDTA, 5% glycerol, 1% NP-40); extract incubated overnight at 4 °C with protein G beads coupled to rabbit IgG, PDCD5 antibody or HDAC3 antibody; Western blot

Protein sequences, listed by entry. Tags and fused reporters are not part of them.
UniProt O15379: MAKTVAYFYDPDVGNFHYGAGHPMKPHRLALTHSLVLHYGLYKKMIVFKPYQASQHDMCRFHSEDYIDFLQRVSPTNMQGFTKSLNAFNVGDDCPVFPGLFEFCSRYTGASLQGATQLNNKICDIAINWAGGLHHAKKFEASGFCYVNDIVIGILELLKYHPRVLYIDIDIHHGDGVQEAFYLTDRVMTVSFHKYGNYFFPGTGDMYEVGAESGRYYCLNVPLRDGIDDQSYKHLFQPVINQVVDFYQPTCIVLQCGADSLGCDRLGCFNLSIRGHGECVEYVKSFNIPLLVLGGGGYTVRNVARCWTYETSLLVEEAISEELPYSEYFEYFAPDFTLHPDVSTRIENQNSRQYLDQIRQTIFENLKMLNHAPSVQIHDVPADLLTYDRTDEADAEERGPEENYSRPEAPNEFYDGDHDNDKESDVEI

**Q.** Which binding does the source give for “histone deacetylase 3 (from UniProt O15379 1-428)” here?
**A.** Its binding is “binds”.

Source: PMC9583501
